From article PMC10214663
Results are given in words; binding and its absence hold for the method and conditions named. Some entries that bind do so weakly or less than the wild type. For part of these data: Sequences can lack the tags named with a protein.

The chains behind the UniProt entries cited, without tags or fusion partners. Residues count along the entry.
UniProt P08620, residues 31-206: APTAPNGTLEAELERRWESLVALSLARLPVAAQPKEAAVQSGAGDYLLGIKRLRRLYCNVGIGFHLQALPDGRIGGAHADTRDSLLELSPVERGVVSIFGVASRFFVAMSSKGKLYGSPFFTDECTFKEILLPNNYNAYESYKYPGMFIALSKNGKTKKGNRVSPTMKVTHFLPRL
UniProt O76093, residues 28-207: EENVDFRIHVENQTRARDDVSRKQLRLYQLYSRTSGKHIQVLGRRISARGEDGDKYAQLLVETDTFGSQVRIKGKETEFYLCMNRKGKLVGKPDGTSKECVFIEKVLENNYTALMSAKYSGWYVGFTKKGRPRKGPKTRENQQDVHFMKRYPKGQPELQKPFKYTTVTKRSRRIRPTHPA

Tests used:
galectin-7 (human) = galectin-7 (human) (UniProt P47929); experiment: overlay or dot blot; galectin array: recombinant galectins (0,5 pmol) dot-blotted on PVDF, blocked with 3% BSA, incubated overnight with FGFs-Fc or Fc (0,9 pM); anti-Fc mAb-HRP and chemiluminescence; with FGF4-Fc also done in the presence of lactose (Fig. S1); both purified
galectin-3 (human) = galectin-3 (human) (UniProt P17931); experiment: as above
galectin-1 (human) = galectin-1 (human) (UniProt P09382); experiment: as above
FGF10-Fc (human) = molecular target: T1, FGF10-Fc (human) (UniProt O15520); experiment: BLI; Octet RED K2; FGFs-Fc (25 µg/mL; N-glycosylated or PNGase F-treated) on Protein-A sensors, pairwise with a reference sensor (Fc subtracted); galectins at 50 µg/mL in solution; both purified
T1 sequence (chain, N-glycosylated (two putative N-glycosylation sites; shift on PNGase F treatment)): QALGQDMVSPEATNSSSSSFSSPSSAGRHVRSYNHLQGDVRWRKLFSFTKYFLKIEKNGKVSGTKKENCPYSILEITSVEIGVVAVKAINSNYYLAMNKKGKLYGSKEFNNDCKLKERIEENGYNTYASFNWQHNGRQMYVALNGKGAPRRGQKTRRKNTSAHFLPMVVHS

FGF4-Fc (human) = FGF4-Fc (human) (UniProt P08620); experiment: as above
FGF18-Fc (human) = FGF18-Fc (human) (UniProt O76093); experiment: as above

Measured: binding

FGF18-Fc (from UniProt O76093 28-207) (Fc fusion)
binds: galectin-7 (human) | galectin-3 (human) | galectin-1 (human)

galectin-1 (from UniProt P09382 1-135)
binds: FGF10-Fc (human) | FGF4-Fc (human) | FGF18-Fc (human)

galectin-3 (from UniProt P17931 1-250)
binds: FGF10-Fc (human) | FGF4-Fc (human) | FGF18-Fc (human)

galectin-7 (from UniProt P47929 1-136)
binds: FGF10-Fc (human) | FGF4-Fc (human) | FGF18-Fc (human)
